Data reported in PubChem BioAssay AID330 (DTP/NCI, 2004).
The list shows only some results of the screen, not a fair sample: it gathers tests that were run many times, whatever their T/C, doses with no T/C, and many T/C values between a quarter and a half above the control. Other doses and runs of a compound stand elsewhere. T/C: endpoint of the treated group in % of that of the vehicle group. Some doses have a count of surviving animals in place of a T/C: the source files T/C as zero there, which appears to mark a toxic dose or a test without result, not a measured value. Some survivor counts are full or nearly so, which does not show that the dose was tolerated: the source hardly ever lists a survival T/C far under the control, and the zero likely stands for such cases as well. Survivors were counted at the toxicity check, usually on the fifth day, unless a day is given; later deaths do not show. Schedule codes are those of the source, read here as Q, the interval in days (D) or hours (H), X, the number of doses. Some entries were tested several times; the values are given in rising order. Where survival is the endpoint, the PubChem record calls one and a half times the control and up active, and a quarter to a half above the control has no call in these data; cut-offs in other NCI protocols can differ. Some T/C values are followed by the survivors on the day toxicity was checked, most often the fifth; without a count, all were alive then. Brackets with × give the number of equal values in this list.

System: P388 leukemia ip, CD2F1 mice, survival T/C
Experiment: NCI In Vivo Anticancer Drug Screen. Data for tumor model P388 Leukemia (intraperitoneal) in CD2F1 (CDF1) mice
Settings: T/C endpoint: median survival time, higher T/C = longer survival
[1] = dose: 200.0 mg/kg/injection, schedule: Q01DX005 (ip), vehicle: Klucel + Tween-80
[2] = dose: 200.0 mg/kg/injection, schedule: Q01DX009 (ip), vehicle: saline
[3] = dose: 50.0 mg/kg/injection, schedule: Q01DX009 (ip), vehicle: saline
[4] = dose: 100.0 mg/kg/injection, schedule: Q01DX009 (ip), vehicle: saline
[5] = dose: 200.0 mg/kg/injection, schedule: Q01DX005 (ip), vehicle: Klucel (hydroxypropylcellulose) (HPC)
[6] = dose: 25.0 mg/kg/injection, schedule: Q01DX005 (ip), vehicle: saline with Tween-80
[7] = dose: 100.0 mg/kg/injection, schedule: Q01DX005 (ip), vehicle: saline with Tween-80
[8] = dose: 200.0 mg/kg/injection, schedule: Q01DX005 (ip), vehicle: saline with Tween-80
[9] = dose: 12.5 mg/kg/injection, schedule: Q01DX009 (ip), vehicle: saline
[10] = dose: 240.0 mg/kg/injection, schedule: Q01DX005 (ip), vehicle: saline with Tween-80
[11] = dose: 200.0 mg/kg/injection, schedule: Q01DX005 (ip), vehicle: saline

O=C1C2=C(C(=O)c3ncccc31)C1C=CC2CC1 (configuration not stated)
survivor count (dose: 200.0 mg/kg/injection, schedule: Q01DX005 (ip), vehicle: DMSO): 3 of 4
survivor count [1]: 2 of 6
survivor count (dose: 400.0 mg/kg/injection, schedule: Q01DX005 (ip), vehicle: Klucel + Tween-80): 0 of 5

CC12CCCC(O1)C(C)(C)O2 (configuration not stated)
survivor count [2]: 3 of 6

COc1ccc(C(CC(=O)c2ccccc2)[Se]c2ccccc2)cc1 (configuration not stated)
survivor count (dose: 200.0 mg/kg/injection, schedule: Q01DX009 (ip), vehicle: Klucel (hydroxypropylcellulose) (HPC)): 5 of 6

CC(C(=O)O)c1cccc2nc(-c3ccccc3)oc12 (configuration not stated)
survivor count (dose: 400.0 mg/kg/injection, schedule: Q01DX009 (ip), vehicle: saline with Tween-80): 2 of 6

COC(=O)C1=C(C(=O)OC)[C]([Hg][CH3])(C(=O)c2ccccc2)N=N1 (configuration not stated)
survivor count [3]: 3 of 6
survivor count [4]: 0 of 6
survivor count [2]: 0 of 6

CC1=Nc2c(C)noc2CC(c2ccccc2O)C1 (configuration not stated)
survivor count [5]: 1 of 6

Cc1c(COC(=O)NC(C)C)c(COC(=O)NC(C)C)c(-c2ccccc2)n1-c1ccccc1
T/C (dose: 12.5 mg/kg/injection, schedule: Q01DX005 (ip), vehicle: saline with Tween-80): 137 % of control
T/C [6]: 148 % of control
T/C [7]: 131 % of control
survivor count [7]: 6 of 6
survivor count [8]: 6 of 6

CCn1cnc2c(=S)nc(N)[nH]c21
survivor count (dose: 50.0 mg/kg/injection, schedule: Q01DX009 (ip), vehicle: Klucel (hydroxypropylcellulose) (HPC)): 6 of 6
survivor count (dose: 100.0 mg/kg/injection, schedule: Q01DX009 (ip), vehicle: Klucel (hydroxypropylcellulose) (HPC)): 6 of 6

C(=NCc1ccccc1)c1ccccc1-c1ccccc1C=NCc1ccccc1
survivor count (dose: 25.0 mg/kg/injection, schedule: Q01DX009 (ip), vehicle: Klucel (hydroxypropylcellulose) (HPC)): 6 of 6

O=C(Nc1ccccc1)c1c(O)[nH]c(=S)[nH]c1=O
T/C (dose: 20.0 mg/kg/injection, schedule: Q01DX009 (ip), vehicle: saline with Tween-80): 132 and 134 % of control
T/C [6]: 128 and 138 % of control
T/C (dose: 30.0 mg/kg/injection, schedule: Q01DX009 (ip), vehicle: saline with Tween-80, evaluated on day 45): 145 and 153 % of control
T/C (dose: 30.0 mg/kg/injection, schedule: Q01DX009 (ip), vehicle: saline with Tween-80, evaluated on day 60): 153 and 158 % of control
T/C (dose: 44.0 mg/kg/injection, schedule: Q01DX009 (ip), vehicle: saline with Tween-80, evaluated on day 45): 161 and 164 % of control
T/C (dose: 44.0 mg/kg/injection, schedule: Q01DX009 (ip), vehicle: saline with Tween-80, evaluated on day 60): 166 (2×) and 192 % of control
T/C (dose: 50.0 mg/kg/injection, schedule: Q01DX005 (ip), vehicle: saline with Tween-80): 142 % of control
T/C (dose: 67.0 mg/kg/injection, schedule: Q01DX009 (ip), vehicle: saline with Tween-80, evaluated on day 45): 177 and 191 % of control
T/C (dose: 67.0 mg/kg/injection, schedule: Q01DX009 (ip), vehicle: saline with Tween-80, evaluated on day 60): 185, 194, 195, 197, 204 % of control
survivor count [7]: 4 of 6
T/C (dose: 100.0 mg/kg/injection, schedule: Q01DX009 (ip), vehicle: saline with Tween-80, evaluated on day 45): 219, 235, 245 % of control
T/C (dose: 100.0 mg/kg/injection, schedule: Q01DX009 (ip), vehicle: saline with Tween-80, evaluated on day 60): 209, 211 (2×), 215, 226, 242, 358 % of control
T/C (dose: 125.0 mg/kg/injection, schedule: Q01DX009 (ip), vehicle: saline with Tween-80, evaluated on day 45): 288 % of control
T/C (dose: 125.0 mg/kg/injection, schedule: Q01DX009 (ip), vehicle: saline with Tween-80, evaluated on day 60): 221 [9 of 10 alive], 225, 303, 316, 600 % of control
T/C (dose: 150.0 mg/kg/injection, schedule: Q01DX009 (ip), vehicle: saline with Tween-80, evaluated on day 45): 374 % of control
T/C (dose: 150.0 mg/kg/injection, schedule: Q01DX009 (ip), vehicle: saline with Tween-80, evaluated on day 60): 224, 233, 255, 277, 356, 600 % of control
survivor count (dose: 175.0 mg/kg/injection, schedule: Q01DX009 (ip), vehicle: saline with Tween-80): 6 of 10
survivor count [8]: 0 of 6

CC1OC(CC(=O)O)CC2=C1C(=O)c1c(O)cccc1C2=O (configuration not stated)
survivor count (dose: 50.0 mg/kg/injection, schedule: Q01DX009 (ip), vehicle: saline with Tween-80): 0 of 6
survivor count (dose: 62.5 mg/kg/injection, schedule: Q01DX009 (ip), vehicle: saline with Tween-80): 0 of 6

Clc1nc(Cl)nc(Nc2ncccn2)n1
survivor count (dose: 240.0 mg/kg/injection, schedule: Q01DX005 (ip), vehicle: Klucel (hydroxypropylcellulose) (HPC)): 2 of 6

CN(CCc1ccccn1)c1ccc2c(c1)Cc1ccccc1-2
survivor count [5]: 0 of 5

CCC[CH2][Sn]([CH2]CCC)([O]C(C)=O)[c]1ccccc1
survivor count [9]: 3 of 6
survivor count (dose: 25.0 mg/kg/injection, schedule: Q01DX009 (ip), vehicle: saline): 3 of 6

C=CC1OCCCO1
survivor count (dose: 240.0 mg/kg/injection, schedule: Q01DX005 (ip), vehicle: saline): 1 of 6

O=C1OI(Cl)c2ccccc21
survivor count [10]: 0 of 6

Cc1ccc(S(=O)(=O)N/N=C\c2c(-c3ccc(Cl)cc3)nc3sccn23)cc1
survivor count (dose: 400.0 mg/kg/injection, schedule: Q01DX001 (ip), vehicle: Klucel (hydroxypropylcellulose) (HPC)): 6 of 6

Cc1c(COC(=O)NC(C)C)c(COC(=O)NC(C)C)c2n1CSC2
T/C (dose: 12.5 mg/kg/injection, schedule: Q01DX005 (ip), vehicle: Klucel + Tween-80): 142 % of control
survivor count (dose: 50.0 mg/kg/injection, schedule: Q01DX005 (ip), vehicle: Klucel + Tween-80): 5 of 6 and 6 of 6
survivor count (dose: 100.0 mg/kg/injection, schedule: Q01DX005 (ip), vehicle: Klucel + Tween-80): 3 of 6
survivor count [1]: 0 of 6

CSCCC(NC(=O)OCC1c2ccccc2-c2ccccc21)C(=O)O (configuration not stated)
survivor count [5]: 2 of 6

Cc1c(N)nc(C(CC(N)=O)NCC(N)C(N)=O)nc1C(=O)NC(C(=O)NC(C)C(O)C(C)C(=O)NC(C(=O)NCCc1nc(-c2nc(C(=O)NCCCNCCCCN)cs2)cs1)C(C)O)C(OC1OC(CO)C(O)C(O)C1OC1OC(CO)C(O)C(OC(N)=O)C1O)c1cnc[nH]1 (configuration not stated)
T/C (dose: 25.0 mg/kg/injection, schedule: Q01DX005 (ip), vehicle: saline): 133 % of control
T/C (dose: 50.0 mg/kg/injection, schedule: Q01DX005 (ip), vehicle: saline): 135 and 136 % of control
survivor count (dose: 100.0 mg/kg/injection, schedule: Q01DX005 (ip), vehicle: saline): 6 of 6
survivor count [11]: 1 of 6

Cc1nc2ccccc2c(=O)n1/N=C/c1ccc(Cl)cc1Cl
survivor count [8]: 6 of 6

N#Cc1c2c(c(N3CCCCC3)n3c1nc1ccccc13)CCC2
survivor count (dose: 120.0 mg/kg/injection, schedule: Q01DX005 (ip), vehicle: saline with Tween-80): 6 of 6
survivor count [10]: 6 of 6

Cc1ccc(NCCN(C)C)c2c(=O)c3c(O)cccc3sc12
survivor count (dose: 100.0 mg/kg/injection, schedule: Q01DX009 (ip), vehicle: suspension in saline): 6 of 6
survivor count (dose: 200.0 mg/kg/injection, schedule: Q01DX009 (ip), vehicle: suspension in saline): 6 of 6

O=C1C=CC(=O)C2=C1C1c3ccccc3C2c2ccccc21
survivor count [5]: 5 of 5

CCN(CC)CCCC(C)Nc1c(C)cnc2cc(Cl)c(C)cc12 (configuration not stated)
survivor count [11]: 1 of 5

[CH3][Sn]([CH3])([Cl])[O][Sn]([CH3])([CH3])[Cl]
T/C [9]: 125 and 141 % of control [5 of 6 alive]
survivor count [3]: 0 of 6
survivor count [4]: 0 of 6
survivor count (dose: 100.0 mg/kg/injection, schedule: Q04DX003 (ip), vehicle: saline): 0 of 6
survivor count [2]: 0 of 6

Nc1ncnc2c1ccn2C1OC2COP(=O)(O)OC2C1O (configuration not stated)
T/C (dose: 4.0 mg/kg/injection, schedule: Q01DX009 (ip), vehicle: saline): 136 % of control
